Structures are written as SMILES. Some of the results follow. The main result of the screen is listed elsewhere. These columns were measured beside it and carry no call. Most of these compounds were active or inconclusive in the main read-out, so they are no random draw. The note in brackets gives the kind of curve behind each potency; many fits are weak.

This assay in a line: qHTS Assay to Find Inhibitors of Chronic Active B-Cell Receptor Signaling. The following applies: ABC-DLBCL IkBa-CBG/CBR reporter, luminescence ratio (green luciferase fused to IkBa over red control in TMD8 lymphoma cells), 4 h. In outline:
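Cell line TMD8 (human ABC DLBCL), stably expressing tet-inducible CBG68-IkBa fusion and CBR; IMDM/0.5% FBS; cpd up to 46 uM; dox induction, 4 h, 37C/5% CO2; dual luminescence; green/red ratio; MG132 control.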

Setting [1] is: measured here: CBR red luminescence, cell number.

By AC50 is commonly meant the concentration at which the activity in the assay is half-maximal. As for `Cc1csc(NC(=O)c2ccc(OCC3CCCO3)cc2)n1` (centres undefined), the AC50 under setting [1] was 3.16 µM [falling, full curve].
Regarding `CC(=O)N1SC(N)=NC1c1ccccc1` (centres undefined), the AC50 under setting [1] is 20 µM [rising, single point].
For the compound `CNC(=O)Nc1ccc(Cl)cc1`, the AC50 under setting [1] is 1.64 µM [rising, partial curve, poor fit].
The same measure, in the same setting: under `CCOc1cc(C)c(S(=O)(=O)Nc2ccc3cn[nH]c3c2)cc1C` stands 35.5 µM [falling, single point]; under `C[C@@H](C(=O)NCCc1ccccc1F)N1C(=O)N2CCc3c([nH]c4ccccc34)[C@@]2(C)C1=O`, 28.2 µM [falling, single point]; under `CCCCCCCCS(=O)C1CS(=O)(=O)CC1O` (centres undefined), 2.82 µM [rising, single point].
As for `COc1ccc(-c2cn3nc(C)c(C)nc3n2)cc1OC`, the AC50 under setting [1] is 0.326 µM [rising, partial curve, poor fit].
Regarding `COc1ccc(-c2csc(Nc3cccc(C)n3)n2)cc1C`, under setting [1], the AC50 is 35.5 µM [falling, single point].
`COc1ccc(C(NCC(=O)NC(C)c2ccc(Cl)cc2)c2ccccc2)cc1` (centres undefined): under setting [1], the AC50 is 12.6 µM [falling, partial curve, poor fit].
Same read-out and setting: for `Cc1cccc(NC(=O)c2ccc3c(c2)OCCO3)n1` the value was 35.5 µM [falling, single point]; for `Cc1nc(Cl)cc(N/N=C/c2ccc(O)cc2O)n1`, 3.55 µM [falling, full curve]; for `NC(=O)NC(=O)COC(=O)CCCSc1nc2ccccc2s1`, 7.94 µM [falling, partial curve].
For the compound `Cc1ccc(NC(=O)c2sc3ncnc(N4CCN(c5ccccn5)CC4)c3c2C)c(C)c1`, the AC50 under setting [1] is 3.55 µM [falling, full curve, poor fit].
Consider `C(=C\c1ccccc1)/CSc1nnc(-c2ccccc2)n1Cc1ccco1`, for which, for the setting “measured here: IkBa-CBG green luminescence”, the half-maximal activity concentration (AC50) was 17.8 µM [falling, single point].
`Cc1cccc(NC(=O)CCCN2C(=O)c3cccc4cccc(c34)C2=O)c1`: under setting [1], the half-maximal activity concentration (AC50) is 1.26 µM [rising, full curve, poor fit].
As to `COc1ccc2c(c1)C(=O)CC(c1ccc3c(c1)OCCO3)O2` (centres undefined), the AC50 under setting [1] is 3.98 µM [rising, single point].
Still for that read-out and setting: under `Cc1cc(C)cc(NC(=S)NCCN(C2CCCCC2)C2CCCC2)c1` stands 17.8 µM [falling, single point].
Same read-out and setting: for `Cc1cccc(N=C2NC(=O)/C(=C/c3cn(C)c4ccccc34)S2)c1` the value was 5.17 µM [falling, full curve].
As for `CC1(c2ccccc2)NC(=O)N(CC(=O)Nc2cc3c(cc2Br)OCCO3)C1=O` (centres undefined), the AC50 under setting [1] was 29.1 µM [rising, single point].

The values above are taken from PubChem BioAssay AID493014 (National Center for Advancing Translational Sciences (NCATS), 2011).
